This note sets out measurements from article PMC6646405, “A quantitative, high-throughput method identifies protein–glycan interactions via mass spectrometry” (Communications Biology, 2019).

Protein sequences, listed by entry. Tags and fused reporters are not part of them. Lines headed by an entry give the natural chain unless they say otherwise; changes in a name come on top.
UniProt Q9Y3R4: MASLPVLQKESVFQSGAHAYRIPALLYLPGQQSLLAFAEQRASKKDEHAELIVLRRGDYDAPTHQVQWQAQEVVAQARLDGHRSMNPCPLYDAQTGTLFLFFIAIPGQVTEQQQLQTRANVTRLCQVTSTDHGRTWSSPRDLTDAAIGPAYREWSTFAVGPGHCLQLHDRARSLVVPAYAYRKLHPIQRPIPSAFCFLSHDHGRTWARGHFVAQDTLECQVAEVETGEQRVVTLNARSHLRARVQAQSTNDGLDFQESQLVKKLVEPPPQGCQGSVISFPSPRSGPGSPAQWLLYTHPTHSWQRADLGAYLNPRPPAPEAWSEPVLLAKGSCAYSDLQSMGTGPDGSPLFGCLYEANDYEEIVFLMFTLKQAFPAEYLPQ

The source gives many values for each of these; only a part stands here.

The experiment has as its target T1, human neuraminidase 2 (NEU2) (Homo sapiens, UniProt Q9Y3R4).
T1 construct: made in house
Put plainly: Time-resolved CUPRA enzyme kinetics, NEU2. Type of experiment: biochemical. The method, then:
To apply CUPRA in this capacity, two or more substrates of interest are introduced, as their corresponding OS^mod, to a solution containing the desired CAZyme. Changes in substrate concentrations, as well as those of the corresponding enzyme products, are determined from the relative abundances of OS^mod-bound ^UniPproxy measured by time-resolved ESI-MS. Because of the manner in which the substrate and product concentrations are measured, the assay is insensitive to differences in their ESI-MS response factors and, consequently, independent of the nature of the chemical modification catalyzed by the enzyme. As a result, time-resolved CUPRA eliminates the need for calibration curves or internal standards, which are generally required with ESI-MS-based enzyme kinetics assays.
Two glycosyl hydrolases, human neuraminidase 2 (NEU2) and 3 (NEU3), which preferentially cleave α2-3-linked Neu5Ac residues, were used to illustrate the ease with which time-resolved CUPRA can establish substrate specificities. We incubated libraries of the Neu5Ac-containing OS^mod with NEU2 (Fig. 2d) or NEU3 (Fig. 2e) and monitored their conversion to the corresponding desialylated OS^mod products at pH 7 and 25 °C. […] All OS^mod containing terminal α2-3-linked Neu5Ac were substrates of NEU3, with initial rates that are 10–50% that of HMO03. […] Substrates containing branching after the α2-3-linkage were poor substrates for both enzymes. […] We note, however, that previous reports have examined NEU2 and NEU3 activity under more acidic solution conditions. Furthermore, the nature of the substrate aglycone may influence the activity of human neuraminidases.
The time-resolved CUPRA measurements were performed by manually mixing aliquots of stock solutions of NEU2 or NEU3 (final concentration 2 µM), ^UniPproxy (5 µM), substrates (Si, 5 µM each) and CUPRA linker (5 µM), all in 200 mM aqueous ammonium acetate at pH 7 and 25 °C. ESI mass spectra were collected continuously at the rate of 30 scans min^−1 starting at 3 min after mixing. The adduct distributions measured for the ^UniPproxy – CUPRA linker complex ions were used to apply SWARM. The time-dependent fractional abundance of a given substrate (FS,i) (Eq. 12), which was used to represent reaction progress, was calculated from the total Ab of ^UniPproxy bound to Si and corresponding product (Pi), corrected for Si consumed prior to data acquisition.12 FS,i=Ab^UniPproxySi/Ab^UniPproxySi+Ab^UniPproxyPi

Consider `CC(=O)N[C@H]1[C@H](O[C@@H]2[C@H](O[C@]3(C(=O)O)C[C@H](O)[C@@H](NC(C)=O)[C@H]([C@H](O)[C@@H](CO)O[C@]4(C(=O)O)C[C@H](O)[C@@H](NC(C)=O)[C@H]([C@H](O)[C@H](O)CO)O4)O3)[C@@H](O)[C@H](O[C@H]3[C@H](O)[C@@H](O)[C@H](N(CCOCCOCCNC(=O)[C@H](Cc4ccccc4)NC(=O)[C@H](Cc4ccccc4)NC(=O)CCCC(=O)NCCc4ccc(S(N)(=O)=O)cc4)C(C)=O)O[C@@H]3CO)O[C@@H]2CO)O[C@H](CO)[C@H](O)[C@@H]1O` [GA10, GalNAcβ1-4(Neu5Acα2-8 Neu5Acα2-3)Galβ1-4Glc-CL], for which the “relative abundance of OSmod substrate (Fig2d time course)” value (shortened to “relative abundance of OSmod substrate”) stood at 0.9096 (time 5 min); 0.9066 (time 6 min); 0.9109 (time 85 min); 0.9081 (time 86 min); 0.9182 (time 87 min); 0.912 (time 88 min). The “relative abundance of OSmod substrate” value reads like this: (time 89 min) 0.9104; (time 90 min) 0.8989; (time 91 min) 0.9136; (time 92 min) 0.9082; (time 93 min) 0.9116; (time 94 min) 0.9141. Also, the “relative abundance of OSmod substrate” value runs as follows: (time 95 min) 0.9105; (time 96 min) 0.9107.
